# Reference: ChEMBL document CHEMBL5465560, “Selectivity Literature for EUbOPEN Chemogenomic Library” (2024)
# Protein sequences, listed by entry. Tags and fused reporters are not part of them. Lines headed by an entry give the natural chain unless they say otherwise; changes in a name come on top.
# UniProt Q00532: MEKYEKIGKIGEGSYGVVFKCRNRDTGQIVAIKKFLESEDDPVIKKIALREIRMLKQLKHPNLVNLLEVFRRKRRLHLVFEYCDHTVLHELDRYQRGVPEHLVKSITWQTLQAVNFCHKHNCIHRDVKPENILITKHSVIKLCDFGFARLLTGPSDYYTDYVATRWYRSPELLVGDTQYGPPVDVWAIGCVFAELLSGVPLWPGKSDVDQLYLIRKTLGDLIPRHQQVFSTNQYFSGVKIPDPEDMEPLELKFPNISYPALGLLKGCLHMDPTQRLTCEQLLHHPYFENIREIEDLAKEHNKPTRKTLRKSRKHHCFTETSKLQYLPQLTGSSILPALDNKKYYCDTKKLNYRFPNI
# UniProt Q15303, whole entry: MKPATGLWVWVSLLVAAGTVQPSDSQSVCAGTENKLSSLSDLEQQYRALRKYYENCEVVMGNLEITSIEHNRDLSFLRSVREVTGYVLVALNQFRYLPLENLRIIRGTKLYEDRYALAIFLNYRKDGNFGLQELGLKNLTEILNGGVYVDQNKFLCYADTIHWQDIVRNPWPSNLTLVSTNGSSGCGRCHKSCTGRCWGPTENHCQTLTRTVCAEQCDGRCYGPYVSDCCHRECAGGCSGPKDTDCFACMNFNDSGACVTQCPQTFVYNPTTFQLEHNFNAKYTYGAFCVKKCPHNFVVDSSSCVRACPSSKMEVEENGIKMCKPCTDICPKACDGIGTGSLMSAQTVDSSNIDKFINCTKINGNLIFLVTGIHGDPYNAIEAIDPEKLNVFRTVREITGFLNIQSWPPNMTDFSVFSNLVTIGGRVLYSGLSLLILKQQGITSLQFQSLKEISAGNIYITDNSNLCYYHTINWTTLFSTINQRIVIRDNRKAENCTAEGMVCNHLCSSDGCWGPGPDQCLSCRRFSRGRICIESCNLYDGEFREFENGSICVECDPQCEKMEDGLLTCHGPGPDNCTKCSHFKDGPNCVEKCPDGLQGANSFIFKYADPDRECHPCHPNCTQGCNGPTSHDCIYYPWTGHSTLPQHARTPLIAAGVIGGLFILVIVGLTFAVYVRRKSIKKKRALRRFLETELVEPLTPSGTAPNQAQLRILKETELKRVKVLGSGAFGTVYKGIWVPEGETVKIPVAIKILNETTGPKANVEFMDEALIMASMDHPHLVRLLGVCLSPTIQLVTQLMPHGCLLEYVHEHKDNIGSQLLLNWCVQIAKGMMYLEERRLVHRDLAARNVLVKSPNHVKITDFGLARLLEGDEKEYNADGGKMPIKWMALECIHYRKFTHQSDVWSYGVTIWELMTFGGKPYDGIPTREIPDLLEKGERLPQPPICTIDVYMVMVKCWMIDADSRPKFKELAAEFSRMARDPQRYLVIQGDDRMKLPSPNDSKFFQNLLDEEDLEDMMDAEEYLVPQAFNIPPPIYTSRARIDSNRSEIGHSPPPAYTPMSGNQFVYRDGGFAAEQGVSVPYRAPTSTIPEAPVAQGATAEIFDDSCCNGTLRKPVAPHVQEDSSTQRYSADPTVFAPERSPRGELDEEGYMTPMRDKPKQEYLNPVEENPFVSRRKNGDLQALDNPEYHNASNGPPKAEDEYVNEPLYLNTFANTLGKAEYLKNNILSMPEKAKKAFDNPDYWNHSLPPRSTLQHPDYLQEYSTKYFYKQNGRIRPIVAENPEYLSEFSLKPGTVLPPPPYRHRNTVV
# UniProt Q9H422: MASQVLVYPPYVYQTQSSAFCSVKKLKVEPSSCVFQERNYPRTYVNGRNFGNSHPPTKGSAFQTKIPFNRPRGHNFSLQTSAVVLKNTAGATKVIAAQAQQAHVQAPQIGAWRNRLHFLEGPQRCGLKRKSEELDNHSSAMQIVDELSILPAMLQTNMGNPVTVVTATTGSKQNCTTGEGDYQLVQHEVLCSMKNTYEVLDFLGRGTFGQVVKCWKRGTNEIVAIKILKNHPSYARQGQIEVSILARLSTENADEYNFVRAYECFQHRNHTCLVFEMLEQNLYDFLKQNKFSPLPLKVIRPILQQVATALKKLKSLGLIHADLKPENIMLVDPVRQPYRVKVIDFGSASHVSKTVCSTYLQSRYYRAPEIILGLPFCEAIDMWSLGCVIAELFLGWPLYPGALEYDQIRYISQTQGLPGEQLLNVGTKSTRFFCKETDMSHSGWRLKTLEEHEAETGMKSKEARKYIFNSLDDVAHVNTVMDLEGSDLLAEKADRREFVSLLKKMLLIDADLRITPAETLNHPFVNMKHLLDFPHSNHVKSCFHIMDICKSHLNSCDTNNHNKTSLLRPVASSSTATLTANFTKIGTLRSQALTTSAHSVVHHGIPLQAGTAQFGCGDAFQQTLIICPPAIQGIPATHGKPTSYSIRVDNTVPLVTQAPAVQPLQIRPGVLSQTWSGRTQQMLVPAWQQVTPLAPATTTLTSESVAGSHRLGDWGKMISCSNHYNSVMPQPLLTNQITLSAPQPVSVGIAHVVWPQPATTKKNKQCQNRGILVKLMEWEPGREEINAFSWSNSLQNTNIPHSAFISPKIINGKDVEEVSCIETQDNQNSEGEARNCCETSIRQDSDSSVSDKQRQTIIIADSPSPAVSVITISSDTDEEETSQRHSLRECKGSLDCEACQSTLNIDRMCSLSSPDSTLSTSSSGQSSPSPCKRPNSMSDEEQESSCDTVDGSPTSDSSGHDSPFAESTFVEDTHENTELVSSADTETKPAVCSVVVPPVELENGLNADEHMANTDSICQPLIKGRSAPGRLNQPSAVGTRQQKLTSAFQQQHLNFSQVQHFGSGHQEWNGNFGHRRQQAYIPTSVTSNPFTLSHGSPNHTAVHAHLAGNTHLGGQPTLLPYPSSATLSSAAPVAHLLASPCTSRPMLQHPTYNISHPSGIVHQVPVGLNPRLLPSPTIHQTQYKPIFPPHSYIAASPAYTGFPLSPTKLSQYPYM
# UniProt Q8TD08: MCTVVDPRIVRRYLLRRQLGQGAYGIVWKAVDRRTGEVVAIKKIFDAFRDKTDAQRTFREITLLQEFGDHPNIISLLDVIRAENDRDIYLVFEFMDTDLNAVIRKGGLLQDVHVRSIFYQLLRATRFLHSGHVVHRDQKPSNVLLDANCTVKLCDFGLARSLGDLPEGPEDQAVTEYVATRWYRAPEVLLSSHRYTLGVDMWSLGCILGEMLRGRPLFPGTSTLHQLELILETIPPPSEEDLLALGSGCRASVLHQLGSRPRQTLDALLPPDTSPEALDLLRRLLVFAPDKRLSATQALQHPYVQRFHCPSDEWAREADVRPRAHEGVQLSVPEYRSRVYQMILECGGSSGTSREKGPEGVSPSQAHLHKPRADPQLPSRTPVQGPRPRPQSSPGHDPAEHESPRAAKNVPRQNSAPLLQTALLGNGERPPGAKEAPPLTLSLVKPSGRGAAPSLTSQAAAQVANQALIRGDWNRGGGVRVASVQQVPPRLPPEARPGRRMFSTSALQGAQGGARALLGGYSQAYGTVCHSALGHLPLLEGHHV
# UniProt Q9BRS2: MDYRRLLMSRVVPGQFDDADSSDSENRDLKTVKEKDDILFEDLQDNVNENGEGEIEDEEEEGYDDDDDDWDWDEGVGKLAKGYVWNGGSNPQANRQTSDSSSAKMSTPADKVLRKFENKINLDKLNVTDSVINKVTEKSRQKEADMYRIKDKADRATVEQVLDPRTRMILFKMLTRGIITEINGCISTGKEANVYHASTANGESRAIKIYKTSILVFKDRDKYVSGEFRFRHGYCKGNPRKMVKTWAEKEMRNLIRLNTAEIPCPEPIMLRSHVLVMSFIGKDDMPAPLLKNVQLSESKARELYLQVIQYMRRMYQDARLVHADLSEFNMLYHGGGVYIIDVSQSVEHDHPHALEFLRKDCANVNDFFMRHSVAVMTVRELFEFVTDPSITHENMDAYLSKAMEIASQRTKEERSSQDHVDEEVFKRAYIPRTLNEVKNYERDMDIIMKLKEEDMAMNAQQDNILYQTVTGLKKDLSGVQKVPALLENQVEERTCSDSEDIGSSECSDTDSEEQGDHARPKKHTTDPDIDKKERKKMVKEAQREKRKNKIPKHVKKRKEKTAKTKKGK
# UniProt O43353, whole entry: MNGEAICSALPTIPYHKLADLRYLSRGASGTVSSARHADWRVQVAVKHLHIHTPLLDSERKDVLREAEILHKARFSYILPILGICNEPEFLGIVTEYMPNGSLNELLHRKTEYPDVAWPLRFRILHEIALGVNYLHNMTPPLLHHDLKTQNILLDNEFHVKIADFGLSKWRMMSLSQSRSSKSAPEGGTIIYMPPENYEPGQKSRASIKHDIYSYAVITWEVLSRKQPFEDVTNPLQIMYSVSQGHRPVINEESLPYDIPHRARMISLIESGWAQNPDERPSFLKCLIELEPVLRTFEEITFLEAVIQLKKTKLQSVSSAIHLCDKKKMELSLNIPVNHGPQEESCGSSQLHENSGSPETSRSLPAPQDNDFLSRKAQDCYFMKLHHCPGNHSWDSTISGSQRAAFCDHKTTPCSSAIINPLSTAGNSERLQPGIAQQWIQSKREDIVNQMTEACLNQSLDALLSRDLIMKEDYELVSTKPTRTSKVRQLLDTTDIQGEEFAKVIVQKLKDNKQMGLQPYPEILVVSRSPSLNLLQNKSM
# UniProt Q15831: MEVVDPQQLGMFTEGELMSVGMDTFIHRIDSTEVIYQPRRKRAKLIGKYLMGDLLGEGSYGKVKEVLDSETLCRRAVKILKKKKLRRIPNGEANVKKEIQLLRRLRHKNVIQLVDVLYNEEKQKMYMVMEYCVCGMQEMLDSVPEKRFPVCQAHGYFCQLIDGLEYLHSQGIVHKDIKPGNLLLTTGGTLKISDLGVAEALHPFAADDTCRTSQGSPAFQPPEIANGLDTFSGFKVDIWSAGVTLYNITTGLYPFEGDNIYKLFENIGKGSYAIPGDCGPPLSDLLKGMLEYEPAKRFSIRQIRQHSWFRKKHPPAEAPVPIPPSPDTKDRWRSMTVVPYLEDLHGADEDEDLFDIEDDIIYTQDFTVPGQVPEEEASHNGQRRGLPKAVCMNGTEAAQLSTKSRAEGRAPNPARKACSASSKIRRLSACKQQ
# UniProt Q9UKI8: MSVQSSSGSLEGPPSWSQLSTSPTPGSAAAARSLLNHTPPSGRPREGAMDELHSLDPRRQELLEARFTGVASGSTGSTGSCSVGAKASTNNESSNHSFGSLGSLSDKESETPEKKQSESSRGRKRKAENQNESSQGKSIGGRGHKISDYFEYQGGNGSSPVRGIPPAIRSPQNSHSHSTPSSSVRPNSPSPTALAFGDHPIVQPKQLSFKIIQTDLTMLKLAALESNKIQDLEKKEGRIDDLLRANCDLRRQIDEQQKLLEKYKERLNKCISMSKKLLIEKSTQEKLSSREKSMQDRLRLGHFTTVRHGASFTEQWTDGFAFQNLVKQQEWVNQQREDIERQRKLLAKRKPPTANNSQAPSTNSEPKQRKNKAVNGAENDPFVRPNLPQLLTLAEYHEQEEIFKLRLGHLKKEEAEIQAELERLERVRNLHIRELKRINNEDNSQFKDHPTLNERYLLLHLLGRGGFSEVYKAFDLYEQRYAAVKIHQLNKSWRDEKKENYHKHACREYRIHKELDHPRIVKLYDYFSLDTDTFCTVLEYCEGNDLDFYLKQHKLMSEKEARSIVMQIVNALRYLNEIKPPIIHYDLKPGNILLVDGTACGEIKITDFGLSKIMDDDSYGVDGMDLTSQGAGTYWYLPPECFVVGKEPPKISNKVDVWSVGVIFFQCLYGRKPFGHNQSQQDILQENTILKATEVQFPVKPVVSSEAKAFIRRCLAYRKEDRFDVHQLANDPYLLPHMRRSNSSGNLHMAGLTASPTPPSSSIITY
# UniProt P51812, whole entry: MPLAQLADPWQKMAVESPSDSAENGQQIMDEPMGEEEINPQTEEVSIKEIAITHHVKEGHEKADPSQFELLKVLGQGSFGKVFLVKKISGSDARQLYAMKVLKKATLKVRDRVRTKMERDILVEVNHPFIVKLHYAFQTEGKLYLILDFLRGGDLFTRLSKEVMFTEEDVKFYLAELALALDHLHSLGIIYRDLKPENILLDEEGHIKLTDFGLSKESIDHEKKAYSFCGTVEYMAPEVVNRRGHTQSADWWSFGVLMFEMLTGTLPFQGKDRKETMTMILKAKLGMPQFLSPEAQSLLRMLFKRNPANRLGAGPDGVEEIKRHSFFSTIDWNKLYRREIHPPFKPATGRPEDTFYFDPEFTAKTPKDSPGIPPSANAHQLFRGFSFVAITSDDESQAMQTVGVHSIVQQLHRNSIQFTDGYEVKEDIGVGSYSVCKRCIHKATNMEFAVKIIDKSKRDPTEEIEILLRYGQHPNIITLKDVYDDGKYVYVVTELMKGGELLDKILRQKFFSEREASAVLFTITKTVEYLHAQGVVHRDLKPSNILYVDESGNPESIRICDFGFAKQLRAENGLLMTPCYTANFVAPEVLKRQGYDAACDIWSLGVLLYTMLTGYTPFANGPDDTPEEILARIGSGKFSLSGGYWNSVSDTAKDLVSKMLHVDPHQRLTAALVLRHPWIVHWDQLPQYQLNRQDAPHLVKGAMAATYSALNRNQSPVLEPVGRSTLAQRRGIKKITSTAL
# Assays:
# Settings in all cases: at 1 µM
# [1] = tested on: Tyrosine-protein kinase ABL1 (Homo sapiens), P00519 [F317I]; assay: (§1) Selectivity interaction (KinomeScan (DiscoverX)) EUB0001581a ABL1
# [2] = tested on: Tyrosine-protein kinase ABL1 (Homo sapiens), P00519 [H396P]; assay: as §1
# [3] = molecular target: RAC-beta serine/threonine-protein kinase (Homo sapiens) (UniProt P31751); assay: Selectivity interaction (KinomeScan (DiscoverX)) EUB0001581a AKT2
# [4] = molecular target: Ankyrin repeat and protein kinase domain-containing protein 1 (Homo sapiens) (UniProt Q8NFD2); assay: Selectivity interaction (KinomeScan (DiscoverX)) EUB0001581a ANKK1
# [5] = molecular target: Bone morphogenetic protein receptor type-1A (Homo sapiens, UniProt P36894); assay: Selectivity interaction (KinomeScan (DiscoverX)) EUB0001581a BMPR1A
# [6] = molecular target: Calcium/calmodulin-dependent protein kinase type 1 (Homo sapiens) (UniProt Q14012); assay: Selectivity interaction (KinomeScan (DiscoverX)) EUB0001581a CAMK1
# [7] = molecular target: Cyclin-dependent kinase 11A (Homo sapiens) (UniProt Q9UQ88); assay: Selectivity interaction (KinomeScan (DiscoverX)) EUB0001581a CDK11A
# [8] = molecular target: Cyclin-dependent kinase-like 1 (Homo sapiens) (UniProt Q00532); assay: Selectivity interaction (KinomeScan (DiscoverX)) EUB0001581a CDKL1
# [9] = molecular target: Casein kinase I isoform alpha (Homo sapiens, UniProt P48729); assay: Selectivity interaction (KinomeScan (DiscoverX)) EUB0001581a CSNK1A1
# [10] = molecular target: Serine/threonine-protein kinase DCLK1 (Homo sapiens) (UniProt O15075); assay: Selectivity interaction (KinomeScan (DiscoverX)) EUB0001581a DCLK1
# [11] = molecular target: Dual serine/threonine and tyrosine protein kinase (Homo sapiens) (UniProt Q6XUX3); assay: Selectivity interaction (KinomeScan (DiscoverX)) EUB0001581a DSTYK
# [12] = molecular target: Receptor tyrosine-protein kinase erbB-4 (Homo sapiens, UniProt Q15303); assay: Selectivity interaction (KinomeScan (DiscoverX)) EUB0001581a ERBB4
# [13] = molecular target: Vascular endothelial growth factor receptor 1 (Homo sapiens) (UniProt P17948); assay: Selectivity interaction (KinomeScan (DiscoverX)) EUB0001581a FLT1
# [14] = molecular target: Vascular endothelial growth factor receptor 3 (Homo sapiens, UniProt P35916); assay: Selectivity interaction (KinomeScan (DiscoverX)) EUB0001581a FLT4
# [15] = molecular target: Homeodomain-interacting protein kinase 3 (Homo sapiens, UniProt Q9H422); assay: Selectivity interaction (KinomeScan (DiscoverX)) EUB0001581a HIPK3
# [16] = molecular target: Inhibitor of nuclear factor kappa-B kinase subunit beta (Homo sapiens) (UniProt O14920); assay: Selectivity interaction (KinomeScan (DiscoverX)) EUB0001581a IKBKB
# [17] = molecular target: Mitogen-activated protein kinase kinase kinase 2 (Homo sapiens) (UniProt Q9Y2U5); assay: Selectivity interaction (KinomeScan (DiscoverX)) EUB0001581a MAP3K2
# [18] = molecular target: Mitogen-activated protein kinase 15 (Homo sapiens) (UniProt Q8TD08); assay: Selectivity interaction (KinomeScan (DiscoverX)) EUB0001581a MAPK15
# [19] = molecular target: Myosin light chain kinase 2, skeletal/cardiac muscle (Homo sapiens) (UniProt Q9H1R3); assay: Selectivity interaction (KinomeScan (DiscoverX)) EUB0001581a MYLK2
# [20] = molecular target: Myosin light chain kinase (Homo sapiens) (UniProt Q32MK0); assay: Selectivity interaction (KinomeScan (DiscoverX)) EUB0001581a MYLK3
# [21] = molecular target: Serine/threonine-protein kinase NIM1 (Homo sapiens) (UniProt Q8IY84); assay: Selectivity interaction (KinomeScan (DiscoverX)) EUB0001581a NIM1K
# [22] = molecular target: High affinity nerve growth factor receptor (Homo sapiens, UniProt P04629); assay: Selectivity interaction (KinomeScan (DiscoverX)) EUB0001581a NTRK1
# [23] = molecular target: Phosphatidylinositol 5-phosphate 4-kinase type-2 beta (Homo sapiens) (UniProt P78356); assay: Selectivity interaction (KinomeScan (DiscoverX)) EUB0001581a PIP4K2B
# [24] = molecular target: 5'-AMP-activated protein kinase catalytic subunit alpha-2 (Homo sapiens) (UniProt P54646); assay: Selectivity interaction (KinomeScan (DiscoverX)) EUB0001581a PRKAA2
# [25] = molecular target: Protein kinase C theta type (Homo sapiens, UniProt Q04759); assay: Selectivity interaction (KinomeScan (DiscoverX)) EUB0001581a PRKCQ
# [26] = molecular target: Serine/threonine-protein kinase RIO1 (Homo sapiens) (UniProt Q9BRS2); assay: Selectivity interaction (KinomeScan (DiscoverX)) EUB0001581a RIOK1
# [27] = molecular target: Receptor-interacting serine/threonine-protein kinase 2 (Homo sapiens, UniProt O43353); assay: Selectivity interaction (KinomeScan (DiscoverX)) EUB0001581a RIPK2
# [28] = molecular target: Ribosomal protein S6 kinase alpha-2 (Homo sapiens) (UniProt Q15349); assay: Selectivity interaction (KinomeScan (DiscoverX)) EUB0001581a RPS6KA2
# [29] = molecular target: Uncharacterized serine/threonine-protein kinase SBK3 (Homo sapiens) (UniProt P0C264); assay: Selectivity interaction (KinomeScan (DiscoverX)) EUB0001581a SBK3
# [30] = molecular target: Serine/threonine-protein kinase STK11 (Homo sapiens) (UniProt Q15831); assay: Selectivity interaction (KinomeScan (DiscoverX)) EUB0001581a STK11
# [31] = molecular target: Serine/threonine-protein kinase 25 (Homo sapiens) (UniProt O00506); assay: Selectivity interaction (KinomeScan (DiscoverX)) EUB0001581a STK25
# [32] = molecular target: Dual specificity testis-specific protein kinase 1 (Homo sapiens) (UniProt Q15569); assay: Selectivity interaction (KinomeScan (DiscoverX)) EUB0001581a TESK1
# [33] = molecular target: Serine/threonine-protein kinase tousled-like 1 (Homo sapiens) (UniProt Q9UKI8); assay: Selectivity interaction (KinomeScan (DiscoverX)) EUB0001581a TLK1
# [34] = molecular target: Testis-specific serine/threonine-protein kinase 1 (Homo sapiens) (UniProt Q9BXA7); assay: Selectivity interaction (KinomeScan (DiscoverX)) EUB0001581a TSSK1B
# [35] = molecular target: Serine/threonine-protein kinase VRK2 (Homo sapiens) (UniProt Q86Y07); assay: Selectivity interaction (KinomeScan (DiscoverX)) EUB0001581a VRK2
# [36] = molecular target: Mitogen-activated protein kinase kinase kinase 20 (Homo sapiens) (UniProt Q9NYL2); assay: Selectivity interaction (KinomeScan (DiscoverX)) EUB0001581a MAP3K20
# [37] = molecular target: Homeodomain-interacting protein kinase 1 (Homo sapiens, UniProt Q86Z02)
# [38] = molecular target: Serine/threonine-protein kinase RIO2 (Homo sapiens) (UniProt Q9BVS4)
# [39] = molecular target: Ribosomal protein S6 kinase alpha-3 (Homo sapiens, UniProt P51812)
smiles,measurement,setting,value
C[C@@H]1C[C@H](N)C[C@H](c2ccncc2NC(=O)c2ccc(F)c(-c3c(F)cccc3F)n2)C1,% of control,[1],100%
same,% of control,[2],100%
same,% of control,[3],100%
same,% of control,[4],100%
same,% of control,[5],84%
same,% of control,[6],100%
same,% of control,[7],100%
same,% of control,[8],100%
same,% of control,[9],97%
same,% of control,[10],87%
same,% of control,[11],93%
same,% of control,[12],100%
same,% of control,[13],100%
same,% of control,[14],100%
same,% of control,[15],93%
same,% of control,[16],100%
same,% of control,[17],88%
same,% of control,[18],2.5%
same,% of control,[19],68%
same,% of control,[20],83%
same,% of control,[21],85%
same,% of control,[22],90%
same,% of control,[23],87%
same,% of control,[24],85%
same,% of control,[25],66%
same,% of control,[26],78%
same,% of control,[27],100%
same,% of control,[28],80%
same,% of control,[29],78%
same,% of control,[30],100%
same,% of control,[31],100%
same,% of control,[32],100%
same,% of control,[33],77%
same,% of control,[34],98%
same,% of control,[35],100%
same,% of control,[36],100%
same,% of control,[37],95%
same,% of control,[38],95%
same,% of control,[39],95%
